Source: article PMC10516952
Results are given in words; binding and its absence hold for the method and conditions named. Some binding calls cover weakened binding; strength is not graded here.

By UniProt entry, the sequences of proteins in these tests, tags left out. Where a name states a change or a piece, a line headed by the entry shows the natural chain unless it says otherwise.
UniProt P49019: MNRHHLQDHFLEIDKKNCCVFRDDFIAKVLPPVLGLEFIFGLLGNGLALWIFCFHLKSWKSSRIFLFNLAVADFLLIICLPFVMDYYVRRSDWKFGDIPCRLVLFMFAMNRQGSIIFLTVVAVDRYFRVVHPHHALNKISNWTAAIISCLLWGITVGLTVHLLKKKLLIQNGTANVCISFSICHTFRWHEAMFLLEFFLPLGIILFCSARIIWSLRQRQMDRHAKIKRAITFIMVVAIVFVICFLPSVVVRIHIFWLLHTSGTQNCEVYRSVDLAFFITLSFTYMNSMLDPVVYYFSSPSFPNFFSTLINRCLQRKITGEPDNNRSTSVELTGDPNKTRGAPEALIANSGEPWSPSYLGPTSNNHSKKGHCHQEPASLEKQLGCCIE
UniProt P63096: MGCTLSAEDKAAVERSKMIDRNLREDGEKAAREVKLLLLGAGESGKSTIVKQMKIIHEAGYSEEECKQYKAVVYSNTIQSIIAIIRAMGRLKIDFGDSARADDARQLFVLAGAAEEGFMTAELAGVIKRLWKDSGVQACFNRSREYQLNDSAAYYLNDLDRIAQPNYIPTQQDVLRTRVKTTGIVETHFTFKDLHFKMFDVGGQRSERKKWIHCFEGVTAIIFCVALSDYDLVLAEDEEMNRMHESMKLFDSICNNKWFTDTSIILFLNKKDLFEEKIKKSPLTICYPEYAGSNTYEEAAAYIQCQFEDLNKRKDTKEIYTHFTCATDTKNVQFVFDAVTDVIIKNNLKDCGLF

Target: Human HCA3 (residues 1–387) with N-terminal HA signal peptide, FLAG-tag and bRIL (human) (UniProt P49019)
Test: cryo-EM structure; receptor, Gi, Gβγ and scFv16 co-expressed in Sf9; complex purified on M2 FLAG resin and Superose 6 in LMNG/GDN/CHS, 20 mM HEPES pH 7.5, 100 mM NaCl, with agonist throughout (HCA2: GSK256073, MK6892, LUF6283 or acifran; HCA3: acifran); single-particle cryo-EM; both purified

With “Gαi1 (Gi) with 2 dominant-negative mutations (G203A, A326S) (from UniProt P63096 1-354)” the binding was “binds”.
